Reference: patent US20240285727A1, “NOVEL THERAPEUTIC PEPTIDES FOR NEURODEGENERATION” (UNIVERSITY OF SOUTHERN CALIFORNIA, priority 2021, published 2024)
Results are given in words; binding and its absence hold for the method and conditions named. For some assays here: Binding seen in cells or lysates may run through a third protein. Some entries that bind do so weakly or less than the wild type.

What was measured:
[1] = target: T1, mitofilin (IMMT), endogenous, in SH-SY5Y neural cells / cell lysate (human) (UniProt Q16891); assay: reciprocal co-immunoprecipitation with SHMOOSE antibody or mitofilin antibody, Western blot (FIG. 5B)
T1 sequence (looked up): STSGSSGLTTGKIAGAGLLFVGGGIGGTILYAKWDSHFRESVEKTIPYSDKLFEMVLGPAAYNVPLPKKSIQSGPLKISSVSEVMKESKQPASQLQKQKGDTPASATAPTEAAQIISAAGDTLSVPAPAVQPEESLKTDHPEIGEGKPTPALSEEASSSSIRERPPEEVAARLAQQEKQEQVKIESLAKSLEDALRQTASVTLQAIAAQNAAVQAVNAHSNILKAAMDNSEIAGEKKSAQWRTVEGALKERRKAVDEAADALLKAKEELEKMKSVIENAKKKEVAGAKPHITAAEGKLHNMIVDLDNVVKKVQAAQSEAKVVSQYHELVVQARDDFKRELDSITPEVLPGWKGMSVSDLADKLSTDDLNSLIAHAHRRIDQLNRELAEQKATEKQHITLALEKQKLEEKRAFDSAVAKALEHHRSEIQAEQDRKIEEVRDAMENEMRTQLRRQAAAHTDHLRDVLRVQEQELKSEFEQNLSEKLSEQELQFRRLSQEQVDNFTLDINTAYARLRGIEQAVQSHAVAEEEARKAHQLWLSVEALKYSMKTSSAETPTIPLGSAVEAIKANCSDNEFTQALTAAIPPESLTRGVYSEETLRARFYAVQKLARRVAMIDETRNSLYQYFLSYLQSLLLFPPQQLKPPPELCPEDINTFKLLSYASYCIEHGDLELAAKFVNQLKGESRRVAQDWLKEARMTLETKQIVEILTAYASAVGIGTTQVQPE

[2] = target: T2, ATP5 subunit O (ATP5O) (UniProt P48047); assay: cell-free binding (FIG. 9C); method not described
T2 sequence (looked up): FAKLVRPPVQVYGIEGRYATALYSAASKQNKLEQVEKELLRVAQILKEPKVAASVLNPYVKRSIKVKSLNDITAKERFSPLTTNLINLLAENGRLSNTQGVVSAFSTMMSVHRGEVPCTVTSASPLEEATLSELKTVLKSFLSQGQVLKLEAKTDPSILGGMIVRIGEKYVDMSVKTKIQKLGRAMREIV

[3] = target: ATP5 subunit B (ATP5B) (UniProt P06576); assay: cell-free binding (FIG. 9C); method not described
[4] = target: T1, mitofilin (IMMT), endogenous, in SH-SY5Y neural cells / cell lysate (human); assay: summary of co-immunoprecipitation and dot blot results
[5] = target: T1, mitofilin (IMMT), endogenous, in SH-SY5Y neural cells / cell lysate (human); assay: reciprocal immunoprecipitation from SHMOOSE-treated neural cells, Western blot

Measured: binding

B1: SHMOOSE (Small Human Mitochondrial Open reading frame Over the SErine-tRNA) peptide (peptide)
peptide: MPPCLTTWLSQLLKDNSYPLVLGPKNFGATPNKSNNHAHYYNHPNPDFPNSPHPYHPR
notes: Endogenous SHMOOSE in Western blots is treated as the same molecule; also called wild type SHMOOSE; synthetic SHMOOSE
binds: [1] | [2] | [3] | [4] | [5]
